In publication PMC4790632:
Like-named read-outs stand apart in the source and are kept apart here. These are yes or no findings as the source states them, for the method shown. Binding seen in cells or lysates may run through a third protein. Some binding calls cover weakened binding; strength is not graded here.

Protein sequences, listed by entry. Tags and fused reporters are not part of them.
UniProt Q9D945: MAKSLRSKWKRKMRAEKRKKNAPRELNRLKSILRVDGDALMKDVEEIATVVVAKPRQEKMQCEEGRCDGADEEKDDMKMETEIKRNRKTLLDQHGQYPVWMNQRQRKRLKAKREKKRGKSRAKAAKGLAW
UniProt P20226: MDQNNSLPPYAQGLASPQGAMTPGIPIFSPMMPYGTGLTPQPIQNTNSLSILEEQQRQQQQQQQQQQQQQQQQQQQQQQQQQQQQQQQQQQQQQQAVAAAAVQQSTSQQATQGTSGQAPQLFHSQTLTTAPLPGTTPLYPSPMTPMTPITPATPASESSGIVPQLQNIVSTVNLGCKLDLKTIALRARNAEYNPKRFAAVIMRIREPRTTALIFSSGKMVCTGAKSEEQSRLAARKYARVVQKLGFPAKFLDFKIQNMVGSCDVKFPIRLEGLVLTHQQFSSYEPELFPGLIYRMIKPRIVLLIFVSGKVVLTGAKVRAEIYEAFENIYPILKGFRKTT

B1: CCCTC-binding factor (CTCF) (protein, UniProt P49711 1-727)
chain: MEGDAVEAIVEESETFIKGKERKTYQRRREGGQEEDACHLPQNQTDGGEVVQDVNSSVQMVMMEQLDPTLLQMKTEVMEGTVAPEAEAAVDDTQIITLQVVNMEEQPINIGELQLVQVPVPVTVPVATTSVEELQGAYENEVSKEGLAESEPMICHTLPLPEGFQVVKVGANGEVETLEQGELPPQEDPSWQKDPDYQPPAKKTKKTKKSKLRYTEEGKDVDVSVYDFEEEQQEGLLSEVNAEKVVGNMKPPKPTKIKKKGVKKTFQCELCSYTCPRRSNLDRHMKSHTDERPHKCHLCGRAFRTVTLLRNHLNTHTGTRPHKCPDCDMAFVTSGELVRHRRYKHTHEKPFKCSMCDYASVEVSKLKRHIRSHTGERPFQCSLCSYASRDTYKLKRHMRTHSGEKPYECYICHARFTQSGTMKMHILQKHTENVAKFHCPHCDTVIARKSDLGVHLRKQHSYIEQGKKCRYCDAVFHERYALIQHQKSHKNEKRFKCDQCDYACRQERHMIMHKRTHTGEKPYACSHCDKTFRQKQLLDMHFKRYHDPNFVPAAFVCSKCGKTFTRRNTMARHADNCAGPDGVEGENGGETKKSKRGRKRKMRSKKEDSSDSENAEPDLDDNEDEEEPAVEIEPEPEPQPVTPAPPPAKKRRGRPPGRTNQPKQNQPTAIIQVEDQNTGAIENIIVEVKKEPDAEPAEGEEEEAQPAATDAPNGDLTPEMILSMMDR

What was measured:
[1] = biological target: 3XFLAG-tagged mLLP (mouse LLP homolog) (mouse) (UniProt Q9D945); assay: co-IP; nuclear extracts of HEK293T cells transfected with 3XFLAG-tagged mLLP or control plasmid; dialysed into IP buffer (25 mM Tris pH 7.4, 150 mM NaCl, 0.1% Triton X-100); anti-FLAG agarose beads overnight at 4 °C; immunoblot
[2] = biological target: 3XFLAG-tagged mLLP (mouse LLP homolog) (mouse) (UniProt Q9D945); assay: as above; remark: listed apart in the source

binding [1] | binding [2] | Molecule
binds |  | TATA-binding protein (TBP) (from UniProt P20226 1-339)
 | binds | B1
